Assay results reported in PMC2923609.
No constants are given. Whether binding was seen depends on the method and setting. In cells and extracts the contact can be indirect. Some binding calls cover weakened binding; strength is not graded here. For some assays here: Where a sequence is shown, tags or fusion partners need not be part of it. Each block holds one molecule with its values, some of them ahead of it.

Amino acid sequences for entries named in this document (tags omitted). Residues count along the entry.
UniProt Q01705, residues 19-2531: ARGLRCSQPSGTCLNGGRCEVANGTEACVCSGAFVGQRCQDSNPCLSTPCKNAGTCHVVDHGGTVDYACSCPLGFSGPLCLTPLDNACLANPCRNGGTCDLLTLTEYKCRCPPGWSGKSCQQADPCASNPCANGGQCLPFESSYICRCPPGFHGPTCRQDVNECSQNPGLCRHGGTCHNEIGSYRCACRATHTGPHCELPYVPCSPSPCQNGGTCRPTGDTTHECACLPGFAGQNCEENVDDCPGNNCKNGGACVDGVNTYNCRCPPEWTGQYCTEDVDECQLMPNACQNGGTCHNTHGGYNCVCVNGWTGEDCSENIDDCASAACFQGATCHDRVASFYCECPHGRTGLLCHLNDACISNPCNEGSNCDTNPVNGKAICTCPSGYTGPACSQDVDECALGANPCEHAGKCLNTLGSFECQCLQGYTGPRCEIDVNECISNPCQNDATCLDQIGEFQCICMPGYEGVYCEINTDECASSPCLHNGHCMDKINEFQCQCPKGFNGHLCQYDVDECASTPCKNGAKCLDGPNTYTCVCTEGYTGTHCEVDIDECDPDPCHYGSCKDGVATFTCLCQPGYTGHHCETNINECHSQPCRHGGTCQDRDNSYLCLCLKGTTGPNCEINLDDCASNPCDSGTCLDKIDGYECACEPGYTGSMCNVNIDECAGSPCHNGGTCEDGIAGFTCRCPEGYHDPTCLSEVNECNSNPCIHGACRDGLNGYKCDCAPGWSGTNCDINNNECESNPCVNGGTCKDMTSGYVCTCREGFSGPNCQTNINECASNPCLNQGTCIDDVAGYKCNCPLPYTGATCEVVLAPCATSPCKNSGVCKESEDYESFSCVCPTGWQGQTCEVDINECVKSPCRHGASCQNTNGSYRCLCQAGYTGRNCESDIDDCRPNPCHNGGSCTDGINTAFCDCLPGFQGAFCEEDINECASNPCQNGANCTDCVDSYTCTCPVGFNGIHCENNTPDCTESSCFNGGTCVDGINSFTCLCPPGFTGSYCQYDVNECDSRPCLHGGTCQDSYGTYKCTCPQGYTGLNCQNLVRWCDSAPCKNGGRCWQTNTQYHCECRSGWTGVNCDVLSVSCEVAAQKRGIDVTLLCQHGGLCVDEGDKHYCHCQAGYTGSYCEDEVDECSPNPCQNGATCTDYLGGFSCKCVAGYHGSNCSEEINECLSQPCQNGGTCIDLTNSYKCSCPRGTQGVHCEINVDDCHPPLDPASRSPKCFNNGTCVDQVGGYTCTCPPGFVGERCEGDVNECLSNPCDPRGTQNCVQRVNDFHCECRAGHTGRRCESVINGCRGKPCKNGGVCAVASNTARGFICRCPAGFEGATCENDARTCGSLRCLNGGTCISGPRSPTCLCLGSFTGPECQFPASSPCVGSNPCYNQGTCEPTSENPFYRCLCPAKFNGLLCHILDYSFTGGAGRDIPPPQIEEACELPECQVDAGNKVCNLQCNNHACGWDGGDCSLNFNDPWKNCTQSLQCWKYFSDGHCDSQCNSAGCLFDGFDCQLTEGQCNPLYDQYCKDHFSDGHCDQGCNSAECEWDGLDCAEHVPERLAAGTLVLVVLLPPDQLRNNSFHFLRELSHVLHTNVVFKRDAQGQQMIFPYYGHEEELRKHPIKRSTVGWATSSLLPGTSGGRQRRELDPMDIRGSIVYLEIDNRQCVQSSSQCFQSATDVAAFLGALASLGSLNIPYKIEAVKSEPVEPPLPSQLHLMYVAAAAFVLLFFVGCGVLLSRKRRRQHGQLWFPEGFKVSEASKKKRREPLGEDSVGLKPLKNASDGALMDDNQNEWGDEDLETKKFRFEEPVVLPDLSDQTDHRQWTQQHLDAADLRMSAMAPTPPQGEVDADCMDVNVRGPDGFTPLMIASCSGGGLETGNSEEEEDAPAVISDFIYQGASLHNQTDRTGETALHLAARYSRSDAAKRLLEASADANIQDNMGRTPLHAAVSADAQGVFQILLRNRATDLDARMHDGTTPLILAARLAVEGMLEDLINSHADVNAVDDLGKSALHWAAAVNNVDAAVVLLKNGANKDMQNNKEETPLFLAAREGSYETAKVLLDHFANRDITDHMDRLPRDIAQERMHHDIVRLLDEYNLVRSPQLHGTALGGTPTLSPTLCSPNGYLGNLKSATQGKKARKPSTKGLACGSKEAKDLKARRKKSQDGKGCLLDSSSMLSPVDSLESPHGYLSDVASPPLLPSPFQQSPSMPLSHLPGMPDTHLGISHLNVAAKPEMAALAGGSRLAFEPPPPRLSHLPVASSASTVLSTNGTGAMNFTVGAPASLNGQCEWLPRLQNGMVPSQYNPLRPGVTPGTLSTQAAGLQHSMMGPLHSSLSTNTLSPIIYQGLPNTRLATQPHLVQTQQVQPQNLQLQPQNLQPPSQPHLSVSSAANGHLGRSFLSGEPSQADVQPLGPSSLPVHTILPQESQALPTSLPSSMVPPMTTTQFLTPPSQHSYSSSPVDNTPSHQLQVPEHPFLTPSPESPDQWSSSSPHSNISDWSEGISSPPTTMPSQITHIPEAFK

Key:
periostin-Myc = target: T1, periostin-Myc (UniProt Q62009); experiment: co-IP; whole-cell lysates of HEK293T cells co-expressing Notch1-FLAG and periostin-Myc; precipitated with anti-Myc antibody, blotted with anti-Notch1 (extracellular region) antibody; lysis buffer 150 mM NaCl, 100 mM Tris-Cl pH 7.4, 1% Triton X-100, 0.5% NP-40
T1 sequence: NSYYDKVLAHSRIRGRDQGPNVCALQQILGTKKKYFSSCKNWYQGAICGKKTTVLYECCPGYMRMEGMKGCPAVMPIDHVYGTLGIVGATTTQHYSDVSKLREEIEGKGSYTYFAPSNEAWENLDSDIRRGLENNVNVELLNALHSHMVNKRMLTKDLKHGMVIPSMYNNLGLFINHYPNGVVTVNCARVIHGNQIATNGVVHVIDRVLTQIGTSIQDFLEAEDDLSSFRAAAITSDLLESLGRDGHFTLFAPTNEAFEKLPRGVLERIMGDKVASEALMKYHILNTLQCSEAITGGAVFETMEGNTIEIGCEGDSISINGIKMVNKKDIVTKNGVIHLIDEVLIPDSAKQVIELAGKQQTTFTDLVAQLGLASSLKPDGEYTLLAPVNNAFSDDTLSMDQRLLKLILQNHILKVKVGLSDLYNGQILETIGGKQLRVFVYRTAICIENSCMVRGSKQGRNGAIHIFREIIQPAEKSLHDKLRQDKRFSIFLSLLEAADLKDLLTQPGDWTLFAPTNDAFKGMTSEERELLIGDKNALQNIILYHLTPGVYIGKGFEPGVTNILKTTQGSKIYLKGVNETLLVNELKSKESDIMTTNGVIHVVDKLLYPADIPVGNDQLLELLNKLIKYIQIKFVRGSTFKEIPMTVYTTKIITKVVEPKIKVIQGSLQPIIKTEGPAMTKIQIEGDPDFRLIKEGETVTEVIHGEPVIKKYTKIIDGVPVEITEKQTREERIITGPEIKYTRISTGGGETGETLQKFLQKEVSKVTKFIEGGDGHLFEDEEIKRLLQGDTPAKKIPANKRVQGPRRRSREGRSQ

[1] = target: Notch1-FLAG precursor (300 kDa) (UniProt Q01705); experiment: co-IP; whole-cell lysates of HEK293T cells co-expressing Notch1-FLAG and periostin; precipitated with anti-FLAG antibody, blotted with anti-periostin antibody; lysis buffer 150 mM NaCl, 100 mM Tris-Cl pH 7.4, 1% Triton X-100, 0.5% NP-40

- binding (periostin-Myc): binds
Molecule: Notch1-FLAG precursor (300 kDa) (from UniProt Q01705 19-2531) (receptor)

- binding [1]: binds
B1: periostin (protein, UniProt Q62009 24-838)
chain: T1 sequence
